In the supplement of paper PMC11006884:
The list shows a part of the results, in another mix than the full data.

Amino acid sequences for entries named in this document (tags omitted). A change or cut given only in a name is not applied to a line headed by its entry.
UniProt Q6NUN9: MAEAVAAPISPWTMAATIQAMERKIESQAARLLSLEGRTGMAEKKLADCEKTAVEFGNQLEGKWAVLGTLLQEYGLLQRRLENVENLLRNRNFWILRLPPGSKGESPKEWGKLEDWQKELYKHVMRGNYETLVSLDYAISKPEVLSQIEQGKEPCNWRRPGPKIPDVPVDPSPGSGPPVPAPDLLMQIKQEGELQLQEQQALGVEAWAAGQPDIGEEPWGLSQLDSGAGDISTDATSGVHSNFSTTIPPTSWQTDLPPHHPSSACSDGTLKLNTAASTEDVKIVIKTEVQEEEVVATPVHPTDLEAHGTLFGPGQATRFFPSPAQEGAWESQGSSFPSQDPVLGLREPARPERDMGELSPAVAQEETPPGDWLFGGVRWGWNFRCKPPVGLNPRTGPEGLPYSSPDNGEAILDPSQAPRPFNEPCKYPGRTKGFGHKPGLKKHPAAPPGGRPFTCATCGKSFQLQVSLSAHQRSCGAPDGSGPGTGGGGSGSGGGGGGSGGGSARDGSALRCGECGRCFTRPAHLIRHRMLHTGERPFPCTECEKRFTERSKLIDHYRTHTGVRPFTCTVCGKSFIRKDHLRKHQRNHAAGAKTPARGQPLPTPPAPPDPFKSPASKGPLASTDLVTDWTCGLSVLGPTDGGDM
UniProt Q5H9R7: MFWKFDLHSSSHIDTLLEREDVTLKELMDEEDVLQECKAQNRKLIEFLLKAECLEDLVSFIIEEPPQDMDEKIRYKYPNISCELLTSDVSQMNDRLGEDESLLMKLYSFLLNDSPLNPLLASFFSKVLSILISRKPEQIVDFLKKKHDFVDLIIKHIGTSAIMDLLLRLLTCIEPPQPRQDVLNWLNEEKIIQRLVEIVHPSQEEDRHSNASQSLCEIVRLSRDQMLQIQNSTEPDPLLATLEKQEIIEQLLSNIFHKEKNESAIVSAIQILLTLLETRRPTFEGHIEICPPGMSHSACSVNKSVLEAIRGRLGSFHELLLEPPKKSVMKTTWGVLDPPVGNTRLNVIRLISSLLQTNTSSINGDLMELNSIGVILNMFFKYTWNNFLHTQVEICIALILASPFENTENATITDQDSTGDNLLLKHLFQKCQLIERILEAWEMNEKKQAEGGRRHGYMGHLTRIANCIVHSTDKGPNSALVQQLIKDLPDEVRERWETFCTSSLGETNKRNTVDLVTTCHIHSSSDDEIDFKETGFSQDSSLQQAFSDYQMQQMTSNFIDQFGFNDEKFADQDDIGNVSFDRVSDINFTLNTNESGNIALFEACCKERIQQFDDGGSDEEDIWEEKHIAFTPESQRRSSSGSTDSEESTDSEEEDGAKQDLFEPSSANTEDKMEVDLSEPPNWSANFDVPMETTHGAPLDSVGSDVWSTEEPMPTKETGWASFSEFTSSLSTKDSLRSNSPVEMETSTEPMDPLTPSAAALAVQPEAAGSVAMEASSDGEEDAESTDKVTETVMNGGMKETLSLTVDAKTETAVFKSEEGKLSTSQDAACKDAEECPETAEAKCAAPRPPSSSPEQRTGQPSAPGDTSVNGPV
UniProt Q6IBW4: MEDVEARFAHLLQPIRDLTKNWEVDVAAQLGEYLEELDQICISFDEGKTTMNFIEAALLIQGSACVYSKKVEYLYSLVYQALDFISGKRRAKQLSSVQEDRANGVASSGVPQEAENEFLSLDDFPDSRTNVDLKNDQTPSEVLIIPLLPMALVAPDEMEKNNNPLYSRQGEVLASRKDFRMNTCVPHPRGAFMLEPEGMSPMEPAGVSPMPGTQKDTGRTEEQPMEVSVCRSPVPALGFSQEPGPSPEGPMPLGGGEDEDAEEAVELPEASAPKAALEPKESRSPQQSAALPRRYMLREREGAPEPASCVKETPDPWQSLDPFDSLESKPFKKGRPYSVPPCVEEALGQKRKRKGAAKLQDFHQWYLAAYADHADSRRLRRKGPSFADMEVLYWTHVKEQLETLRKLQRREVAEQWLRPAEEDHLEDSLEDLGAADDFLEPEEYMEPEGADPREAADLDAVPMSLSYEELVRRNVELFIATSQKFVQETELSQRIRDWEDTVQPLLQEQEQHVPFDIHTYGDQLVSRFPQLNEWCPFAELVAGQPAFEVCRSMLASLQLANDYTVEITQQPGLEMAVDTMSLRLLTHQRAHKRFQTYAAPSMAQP
UniProt Q6S8J3, whole entry, looked up: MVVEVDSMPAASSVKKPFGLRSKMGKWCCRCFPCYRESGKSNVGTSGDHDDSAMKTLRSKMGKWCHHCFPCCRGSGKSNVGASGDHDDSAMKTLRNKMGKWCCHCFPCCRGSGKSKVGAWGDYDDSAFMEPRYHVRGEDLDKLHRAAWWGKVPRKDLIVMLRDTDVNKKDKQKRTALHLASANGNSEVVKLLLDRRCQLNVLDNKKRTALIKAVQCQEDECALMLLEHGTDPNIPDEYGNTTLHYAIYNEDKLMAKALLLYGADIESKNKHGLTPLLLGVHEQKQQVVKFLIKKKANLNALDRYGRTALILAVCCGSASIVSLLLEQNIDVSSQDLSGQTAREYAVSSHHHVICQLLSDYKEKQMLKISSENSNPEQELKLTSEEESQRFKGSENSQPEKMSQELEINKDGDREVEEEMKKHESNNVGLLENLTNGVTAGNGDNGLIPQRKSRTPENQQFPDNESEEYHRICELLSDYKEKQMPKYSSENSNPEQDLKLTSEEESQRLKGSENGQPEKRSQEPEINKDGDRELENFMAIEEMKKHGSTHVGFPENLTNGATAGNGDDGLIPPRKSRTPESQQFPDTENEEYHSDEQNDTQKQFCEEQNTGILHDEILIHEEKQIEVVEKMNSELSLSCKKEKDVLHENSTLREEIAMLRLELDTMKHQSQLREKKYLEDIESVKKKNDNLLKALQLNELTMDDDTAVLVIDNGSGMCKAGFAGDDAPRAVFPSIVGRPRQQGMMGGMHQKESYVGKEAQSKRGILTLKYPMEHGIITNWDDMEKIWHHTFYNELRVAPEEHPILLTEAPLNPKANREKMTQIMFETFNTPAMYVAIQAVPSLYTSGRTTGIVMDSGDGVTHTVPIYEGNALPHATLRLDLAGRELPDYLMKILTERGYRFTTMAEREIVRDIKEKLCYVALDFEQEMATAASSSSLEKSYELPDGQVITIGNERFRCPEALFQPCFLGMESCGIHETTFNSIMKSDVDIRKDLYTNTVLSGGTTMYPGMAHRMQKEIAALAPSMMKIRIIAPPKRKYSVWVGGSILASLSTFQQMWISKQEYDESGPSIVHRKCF
UniProt Q5VTE6: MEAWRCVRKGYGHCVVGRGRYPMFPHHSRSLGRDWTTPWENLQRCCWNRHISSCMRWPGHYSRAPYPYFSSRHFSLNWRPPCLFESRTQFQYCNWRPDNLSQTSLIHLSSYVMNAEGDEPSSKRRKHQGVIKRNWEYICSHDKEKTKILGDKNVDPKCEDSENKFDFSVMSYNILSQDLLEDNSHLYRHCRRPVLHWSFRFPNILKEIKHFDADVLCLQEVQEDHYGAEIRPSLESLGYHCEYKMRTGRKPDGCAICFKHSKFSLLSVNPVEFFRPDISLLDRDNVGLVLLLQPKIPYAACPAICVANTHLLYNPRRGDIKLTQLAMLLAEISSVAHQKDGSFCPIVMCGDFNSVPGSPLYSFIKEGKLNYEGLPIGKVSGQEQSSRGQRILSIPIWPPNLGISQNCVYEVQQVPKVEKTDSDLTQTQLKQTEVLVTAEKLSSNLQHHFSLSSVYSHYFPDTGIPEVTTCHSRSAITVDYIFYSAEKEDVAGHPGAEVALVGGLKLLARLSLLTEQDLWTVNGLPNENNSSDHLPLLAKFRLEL
UniProt Q6IQ21: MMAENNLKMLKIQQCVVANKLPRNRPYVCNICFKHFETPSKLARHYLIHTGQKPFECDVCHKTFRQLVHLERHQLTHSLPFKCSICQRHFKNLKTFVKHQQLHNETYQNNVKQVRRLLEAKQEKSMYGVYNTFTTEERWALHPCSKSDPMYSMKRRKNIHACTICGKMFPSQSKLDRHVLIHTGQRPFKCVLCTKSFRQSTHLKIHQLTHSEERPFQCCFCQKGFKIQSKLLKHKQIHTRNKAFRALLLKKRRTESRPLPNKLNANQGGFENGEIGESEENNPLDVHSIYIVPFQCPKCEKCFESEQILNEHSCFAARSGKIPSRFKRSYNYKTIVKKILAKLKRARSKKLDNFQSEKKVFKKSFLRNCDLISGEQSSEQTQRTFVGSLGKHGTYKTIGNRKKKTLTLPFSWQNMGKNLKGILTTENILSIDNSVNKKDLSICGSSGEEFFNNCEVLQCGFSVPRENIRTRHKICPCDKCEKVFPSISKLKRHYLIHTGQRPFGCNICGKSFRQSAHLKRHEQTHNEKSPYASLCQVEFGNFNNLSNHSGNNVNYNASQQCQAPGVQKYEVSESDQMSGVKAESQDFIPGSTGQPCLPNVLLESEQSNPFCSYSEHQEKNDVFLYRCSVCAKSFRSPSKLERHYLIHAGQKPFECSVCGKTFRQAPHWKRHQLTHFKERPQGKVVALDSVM
UniProt Q6PI48: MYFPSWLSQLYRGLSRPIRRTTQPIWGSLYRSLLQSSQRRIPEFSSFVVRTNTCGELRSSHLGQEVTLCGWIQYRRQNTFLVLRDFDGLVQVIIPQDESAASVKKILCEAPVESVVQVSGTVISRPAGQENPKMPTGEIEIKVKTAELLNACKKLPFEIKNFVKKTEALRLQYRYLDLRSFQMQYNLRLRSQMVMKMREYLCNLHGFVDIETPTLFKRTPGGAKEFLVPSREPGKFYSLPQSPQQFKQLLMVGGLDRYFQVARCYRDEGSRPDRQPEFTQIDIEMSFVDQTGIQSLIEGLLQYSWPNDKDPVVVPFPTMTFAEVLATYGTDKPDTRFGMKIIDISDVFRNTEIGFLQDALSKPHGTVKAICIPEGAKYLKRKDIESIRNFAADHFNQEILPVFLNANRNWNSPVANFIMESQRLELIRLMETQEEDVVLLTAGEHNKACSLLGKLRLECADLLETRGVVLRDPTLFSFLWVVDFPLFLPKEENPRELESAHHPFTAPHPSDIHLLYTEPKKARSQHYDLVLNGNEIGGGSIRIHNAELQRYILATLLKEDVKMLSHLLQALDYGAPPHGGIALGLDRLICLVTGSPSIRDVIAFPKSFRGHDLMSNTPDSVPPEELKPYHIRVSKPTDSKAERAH
UniProt Q69YQ0: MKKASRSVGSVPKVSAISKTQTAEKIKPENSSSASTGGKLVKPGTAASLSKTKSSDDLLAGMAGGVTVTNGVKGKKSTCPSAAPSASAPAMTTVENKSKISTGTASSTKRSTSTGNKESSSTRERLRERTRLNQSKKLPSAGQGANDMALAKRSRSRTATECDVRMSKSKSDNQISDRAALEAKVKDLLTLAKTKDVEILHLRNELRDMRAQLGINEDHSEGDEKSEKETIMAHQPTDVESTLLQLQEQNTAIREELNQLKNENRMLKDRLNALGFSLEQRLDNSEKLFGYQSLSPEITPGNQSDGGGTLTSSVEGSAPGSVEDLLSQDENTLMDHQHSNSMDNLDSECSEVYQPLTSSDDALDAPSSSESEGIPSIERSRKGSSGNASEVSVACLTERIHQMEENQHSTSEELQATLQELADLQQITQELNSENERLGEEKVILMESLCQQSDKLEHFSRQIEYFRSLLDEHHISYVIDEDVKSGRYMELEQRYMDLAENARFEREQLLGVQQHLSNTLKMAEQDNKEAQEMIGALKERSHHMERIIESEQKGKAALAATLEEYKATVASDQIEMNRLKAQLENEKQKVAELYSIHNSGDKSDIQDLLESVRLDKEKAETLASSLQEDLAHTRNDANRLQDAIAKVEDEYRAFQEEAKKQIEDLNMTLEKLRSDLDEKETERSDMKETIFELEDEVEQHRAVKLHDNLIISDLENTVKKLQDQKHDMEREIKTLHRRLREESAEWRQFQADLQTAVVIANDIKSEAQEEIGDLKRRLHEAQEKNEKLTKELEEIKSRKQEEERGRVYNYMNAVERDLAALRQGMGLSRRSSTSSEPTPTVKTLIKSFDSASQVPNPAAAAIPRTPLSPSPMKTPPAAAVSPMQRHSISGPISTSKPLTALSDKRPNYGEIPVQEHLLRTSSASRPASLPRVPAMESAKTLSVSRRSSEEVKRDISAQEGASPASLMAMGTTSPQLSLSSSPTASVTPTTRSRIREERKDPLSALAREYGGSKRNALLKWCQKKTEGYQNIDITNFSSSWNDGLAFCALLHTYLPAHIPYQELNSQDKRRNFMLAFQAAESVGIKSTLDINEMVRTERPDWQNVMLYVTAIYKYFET

Compound: COC(=O)C#Cc1ccccc1 [methyl 3-phenylpropiolate]
Assay: log2 ratio of iodoacetamide-alkyne labeling of the cysteine site, DMSO over compound (competition); higher = stronger covalent engagement of the cysteine by the compound, active = 1 or more
Details: 500 µM; treatment time 1 h; system: HEK293T cell lysate
Method in brief: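 Reporter intensities give each cysteine's log2 competition ratio as the mean of control channels over the mean of compound channels. The samples were HEK293T lysate (2 mg/mL) given vehicle or electrophile (500 µM, 1 h, ambient temperature), then iodoacetamide alkyne (1 h), followed by click coupling to sCIP-TMT reagents, pooling, trypsin digestion overnight at 37 °C, streptavidin enrichment, acid elution, Orbitrap Eclipse LC-MS/MS with FAIMS and FragPipe quantification. Duplicate channels and three replicates were run, and cysteines quantified in only one replicate were discarded.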

Row | Target | log2 ratio of iodoacetamide-alkyne labeling
1 | IQSEC1 C260 (UniProt Q6DN90) | inactive: 0.349
2 | ZNF746 C425 (UniProt Q6NUN9) | inactive: 0.385
3 | UniProt Q5H9R7_C500 | inactive: 0.52
4 | ATAD2 C635 (UniProt Q6PL18) | inactive: 0.934
5 | ZC3H14 C622 (UniProt Q6PJT7) | inactive: -0.0943
6 | MBOAT2 C505 (UniProt Q6ZWT7) | inactive: 0.561
7 | RIF1 C1139 (UniProt Q5UIP0) | inactive: 0.189
8 | NCAPH2 C309 (UniProt Q6IBW4) | inactive: 0.352
9 | UniProt Q69YN4_C781 | inactive: 0.121
10 | UniProt Q5FWF4_C811 | inactive: -0.337
11 | ZNF318 C1559 (UniProt Q5VUA4) | inactive: 0.605
12 | UniProt Q6S8J3_C965 | inactive: 0.0963
13 | CAMSAP1 C848 (UniProt Q5T5Y3) | inactive: 0.391
14 | UniProt Q5H9R7_C467 | inactive: 0.103
15 | ANGEL2 C158 (UniProt Q5VTE6) | inactive: -0.171
16 | PDE12 C108 (UniProt Q6L8Q7) | inactive: 0.84
17 | ZNF770 C369 (UniProt Q6IQ21) | inactive: 0.619
18 | DARS2 C371 (UniProt Q6PI48) | inactive: 0.442
19 | UniProt Q69YQ0_C79 | inactive: 0.787
20 | SH3PXD2A C384 (UniProt Q5TCZ1) | inactive: 0.443
21 | DENND4C C126 (UniProt Q5VZ89) | inactive: 0.476
22 | NXN C147 (UniProt Q6DKJ4) | inactive: 0.326

As entered above:
log2 ratio of iodoacetamide-alkyne labeling with UniProt Q69YQ0_C79 is entered as inactive: 0.787
log2 ratio of iodoacetamide-alkyne labeling with PDE12 C108 (UniProt Q6L8Q7) is entered as inactive: 0.84
